Laboratory results published in the supplement of paper PMC10849652.
Some of the results follow. Residues, ends and D or L forms follow the SMILES beside them. *: point of attachment. Cbz = O=C(OCc1ccccc1)*

Chains of the proteins cited; added tags and fusions are not shown. Lines headed by an entry give the natural chain unless they say otherwise; changes in a name come on top.
UniProt Q8N573: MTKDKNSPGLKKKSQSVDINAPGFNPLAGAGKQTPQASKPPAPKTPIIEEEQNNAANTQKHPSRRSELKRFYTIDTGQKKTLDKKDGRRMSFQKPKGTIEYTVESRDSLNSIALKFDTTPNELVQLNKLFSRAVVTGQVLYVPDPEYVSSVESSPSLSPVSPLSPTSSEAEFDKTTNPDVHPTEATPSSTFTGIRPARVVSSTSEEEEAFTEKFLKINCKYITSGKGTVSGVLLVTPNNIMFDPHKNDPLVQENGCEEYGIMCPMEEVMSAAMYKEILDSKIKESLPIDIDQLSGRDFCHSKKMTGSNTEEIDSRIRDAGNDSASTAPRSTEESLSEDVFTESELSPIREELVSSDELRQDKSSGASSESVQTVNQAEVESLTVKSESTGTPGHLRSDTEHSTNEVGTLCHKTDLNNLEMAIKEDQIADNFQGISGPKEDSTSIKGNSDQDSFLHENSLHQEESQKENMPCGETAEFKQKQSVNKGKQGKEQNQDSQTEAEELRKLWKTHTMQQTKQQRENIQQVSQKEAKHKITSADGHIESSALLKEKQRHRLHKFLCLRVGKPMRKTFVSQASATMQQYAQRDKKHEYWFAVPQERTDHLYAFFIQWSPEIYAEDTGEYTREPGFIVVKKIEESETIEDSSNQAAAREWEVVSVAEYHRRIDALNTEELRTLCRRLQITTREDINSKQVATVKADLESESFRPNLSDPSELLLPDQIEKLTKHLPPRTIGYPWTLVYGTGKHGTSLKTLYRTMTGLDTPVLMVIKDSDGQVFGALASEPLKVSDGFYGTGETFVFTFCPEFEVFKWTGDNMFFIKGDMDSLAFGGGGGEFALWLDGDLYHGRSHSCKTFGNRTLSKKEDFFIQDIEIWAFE
UniProt Q01804: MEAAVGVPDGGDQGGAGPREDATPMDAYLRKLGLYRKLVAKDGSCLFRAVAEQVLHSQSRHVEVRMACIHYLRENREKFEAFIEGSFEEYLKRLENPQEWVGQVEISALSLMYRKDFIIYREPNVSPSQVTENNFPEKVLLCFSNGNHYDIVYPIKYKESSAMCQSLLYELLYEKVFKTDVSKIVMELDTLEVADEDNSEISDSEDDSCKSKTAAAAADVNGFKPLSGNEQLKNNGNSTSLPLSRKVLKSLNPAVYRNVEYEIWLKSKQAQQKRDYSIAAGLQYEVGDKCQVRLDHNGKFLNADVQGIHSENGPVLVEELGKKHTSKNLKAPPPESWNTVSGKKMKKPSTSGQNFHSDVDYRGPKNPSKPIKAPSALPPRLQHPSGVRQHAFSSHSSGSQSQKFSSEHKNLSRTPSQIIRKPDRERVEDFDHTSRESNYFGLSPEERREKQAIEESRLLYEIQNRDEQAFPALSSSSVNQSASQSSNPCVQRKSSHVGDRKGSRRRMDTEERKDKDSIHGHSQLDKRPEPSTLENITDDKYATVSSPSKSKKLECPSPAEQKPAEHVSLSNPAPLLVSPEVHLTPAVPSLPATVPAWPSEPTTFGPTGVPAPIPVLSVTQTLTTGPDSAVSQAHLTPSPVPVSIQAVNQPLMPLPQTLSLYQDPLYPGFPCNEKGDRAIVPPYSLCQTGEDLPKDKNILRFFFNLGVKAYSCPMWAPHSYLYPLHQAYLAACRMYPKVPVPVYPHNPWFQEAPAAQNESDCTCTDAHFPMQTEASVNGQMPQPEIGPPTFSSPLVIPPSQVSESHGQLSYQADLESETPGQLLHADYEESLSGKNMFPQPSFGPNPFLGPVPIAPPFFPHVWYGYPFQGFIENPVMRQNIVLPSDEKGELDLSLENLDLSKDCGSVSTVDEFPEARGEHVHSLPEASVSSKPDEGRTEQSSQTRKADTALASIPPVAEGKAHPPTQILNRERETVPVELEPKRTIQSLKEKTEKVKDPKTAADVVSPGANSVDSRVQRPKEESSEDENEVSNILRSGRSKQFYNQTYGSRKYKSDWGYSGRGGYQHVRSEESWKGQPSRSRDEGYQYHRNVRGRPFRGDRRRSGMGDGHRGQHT
UniProt P07237: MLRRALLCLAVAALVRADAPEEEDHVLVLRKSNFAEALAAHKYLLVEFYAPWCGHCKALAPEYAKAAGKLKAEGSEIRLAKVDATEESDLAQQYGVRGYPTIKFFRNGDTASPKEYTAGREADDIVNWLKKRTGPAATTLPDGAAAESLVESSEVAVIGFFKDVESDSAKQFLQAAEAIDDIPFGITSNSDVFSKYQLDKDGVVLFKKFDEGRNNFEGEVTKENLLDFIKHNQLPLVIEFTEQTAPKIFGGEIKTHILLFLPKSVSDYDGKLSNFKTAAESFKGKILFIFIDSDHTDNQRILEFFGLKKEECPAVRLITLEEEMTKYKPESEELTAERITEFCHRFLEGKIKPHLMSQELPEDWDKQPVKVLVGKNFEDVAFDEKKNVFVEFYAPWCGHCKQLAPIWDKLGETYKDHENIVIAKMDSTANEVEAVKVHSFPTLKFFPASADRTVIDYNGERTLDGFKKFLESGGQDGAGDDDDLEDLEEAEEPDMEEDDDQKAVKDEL
UniProt Q86UY8: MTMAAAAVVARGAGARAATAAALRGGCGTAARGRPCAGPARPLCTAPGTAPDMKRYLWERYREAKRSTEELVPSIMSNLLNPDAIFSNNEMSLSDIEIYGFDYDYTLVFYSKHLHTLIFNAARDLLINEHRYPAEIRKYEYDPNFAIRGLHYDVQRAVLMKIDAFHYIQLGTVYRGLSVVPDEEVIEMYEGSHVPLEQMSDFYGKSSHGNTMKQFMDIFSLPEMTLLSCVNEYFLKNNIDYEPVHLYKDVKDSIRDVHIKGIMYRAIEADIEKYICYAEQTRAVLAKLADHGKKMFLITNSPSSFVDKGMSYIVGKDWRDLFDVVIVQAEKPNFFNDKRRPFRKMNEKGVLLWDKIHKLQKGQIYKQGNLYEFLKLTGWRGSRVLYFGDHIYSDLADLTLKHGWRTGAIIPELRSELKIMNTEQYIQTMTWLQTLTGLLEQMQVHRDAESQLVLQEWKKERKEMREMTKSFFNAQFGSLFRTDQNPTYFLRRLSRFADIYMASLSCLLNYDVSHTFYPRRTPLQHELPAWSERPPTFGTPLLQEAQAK
UniProt Q9NWU1, whole entry, looked up: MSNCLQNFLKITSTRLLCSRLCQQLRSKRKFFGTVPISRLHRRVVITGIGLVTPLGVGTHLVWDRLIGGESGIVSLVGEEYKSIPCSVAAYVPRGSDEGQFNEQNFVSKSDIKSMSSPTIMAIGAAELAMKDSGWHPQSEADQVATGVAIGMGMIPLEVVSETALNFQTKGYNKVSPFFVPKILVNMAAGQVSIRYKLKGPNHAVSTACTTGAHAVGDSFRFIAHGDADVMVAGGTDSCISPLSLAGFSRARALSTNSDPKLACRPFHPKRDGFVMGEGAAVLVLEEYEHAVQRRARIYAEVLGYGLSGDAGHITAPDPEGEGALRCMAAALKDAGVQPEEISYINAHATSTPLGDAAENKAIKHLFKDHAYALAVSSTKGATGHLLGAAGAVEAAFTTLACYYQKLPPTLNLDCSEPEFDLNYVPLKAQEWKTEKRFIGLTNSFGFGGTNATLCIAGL
UniProt P13674: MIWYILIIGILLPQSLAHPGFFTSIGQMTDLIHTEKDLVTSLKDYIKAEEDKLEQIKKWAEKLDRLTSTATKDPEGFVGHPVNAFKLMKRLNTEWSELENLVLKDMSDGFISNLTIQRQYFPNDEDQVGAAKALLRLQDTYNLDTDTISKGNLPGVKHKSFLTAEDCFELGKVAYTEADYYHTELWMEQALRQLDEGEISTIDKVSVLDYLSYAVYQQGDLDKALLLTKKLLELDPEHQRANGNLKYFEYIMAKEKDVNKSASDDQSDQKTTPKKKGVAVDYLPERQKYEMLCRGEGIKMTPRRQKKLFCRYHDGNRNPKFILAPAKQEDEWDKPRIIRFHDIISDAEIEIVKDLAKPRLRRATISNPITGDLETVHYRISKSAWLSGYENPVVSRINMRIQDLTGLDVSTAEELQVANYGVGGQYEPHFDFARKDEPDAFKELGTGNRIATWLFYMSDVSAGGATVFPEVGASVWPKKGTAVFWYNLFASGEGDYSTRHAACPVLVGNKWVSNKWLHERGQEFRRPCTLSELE
UniProt Q6PK18: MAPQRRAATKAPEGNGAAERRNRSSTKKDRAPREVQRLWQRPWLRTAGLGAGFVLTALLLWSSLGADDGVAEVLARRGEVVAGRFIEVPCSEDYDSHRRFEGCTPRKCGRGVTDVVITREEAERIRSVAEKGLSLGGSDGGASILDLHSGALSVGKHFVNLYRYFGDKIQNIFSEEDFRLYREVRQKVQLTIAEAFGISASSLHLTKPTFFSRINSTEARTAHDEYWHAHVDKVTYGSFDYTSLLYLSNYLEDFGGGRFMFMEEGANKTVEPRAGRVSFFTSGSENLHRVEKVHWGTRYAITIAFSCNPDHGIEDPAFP
UniProt Q9NXX6: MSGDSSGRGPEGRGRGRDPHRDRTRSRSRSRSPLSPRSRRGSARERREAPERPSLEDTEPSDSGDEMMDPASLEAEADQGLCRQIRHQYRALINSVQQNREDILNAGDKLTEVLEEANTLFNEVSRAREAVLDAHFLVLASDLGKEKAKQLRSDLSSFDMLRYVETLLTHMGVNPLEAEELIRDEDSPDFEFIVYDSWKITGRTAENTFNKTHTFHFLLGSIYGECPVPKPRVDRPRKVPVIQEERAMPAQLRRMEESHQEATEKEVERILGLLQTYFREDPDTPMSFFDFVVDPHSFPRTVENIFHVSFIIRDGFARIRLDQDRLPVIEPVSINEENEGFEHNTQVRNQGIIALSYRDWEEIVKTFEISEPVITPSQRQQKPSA
UniProt Q9BZD4: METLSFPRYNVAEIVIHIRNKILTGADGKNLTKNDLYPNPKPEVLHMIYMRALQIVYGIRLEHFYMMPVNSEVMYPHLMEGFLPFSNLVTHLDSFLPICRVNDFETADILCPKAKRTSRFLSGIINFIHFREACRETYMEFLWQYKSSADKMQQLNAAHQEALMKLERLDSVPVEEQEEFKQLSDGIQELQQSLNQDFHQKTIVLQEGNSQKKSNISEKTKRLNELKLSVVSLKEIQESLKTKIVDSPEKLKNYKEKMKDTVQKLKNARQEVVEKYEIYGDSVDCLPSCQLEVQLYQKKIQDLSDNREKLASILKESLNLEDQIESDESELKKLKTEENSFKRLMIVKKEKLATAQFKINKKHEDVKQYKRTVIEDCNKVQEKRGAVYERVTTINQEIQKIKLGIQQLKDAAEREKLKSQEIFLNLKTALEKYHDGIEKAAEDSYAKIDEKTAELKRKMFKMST
UniProt O60890: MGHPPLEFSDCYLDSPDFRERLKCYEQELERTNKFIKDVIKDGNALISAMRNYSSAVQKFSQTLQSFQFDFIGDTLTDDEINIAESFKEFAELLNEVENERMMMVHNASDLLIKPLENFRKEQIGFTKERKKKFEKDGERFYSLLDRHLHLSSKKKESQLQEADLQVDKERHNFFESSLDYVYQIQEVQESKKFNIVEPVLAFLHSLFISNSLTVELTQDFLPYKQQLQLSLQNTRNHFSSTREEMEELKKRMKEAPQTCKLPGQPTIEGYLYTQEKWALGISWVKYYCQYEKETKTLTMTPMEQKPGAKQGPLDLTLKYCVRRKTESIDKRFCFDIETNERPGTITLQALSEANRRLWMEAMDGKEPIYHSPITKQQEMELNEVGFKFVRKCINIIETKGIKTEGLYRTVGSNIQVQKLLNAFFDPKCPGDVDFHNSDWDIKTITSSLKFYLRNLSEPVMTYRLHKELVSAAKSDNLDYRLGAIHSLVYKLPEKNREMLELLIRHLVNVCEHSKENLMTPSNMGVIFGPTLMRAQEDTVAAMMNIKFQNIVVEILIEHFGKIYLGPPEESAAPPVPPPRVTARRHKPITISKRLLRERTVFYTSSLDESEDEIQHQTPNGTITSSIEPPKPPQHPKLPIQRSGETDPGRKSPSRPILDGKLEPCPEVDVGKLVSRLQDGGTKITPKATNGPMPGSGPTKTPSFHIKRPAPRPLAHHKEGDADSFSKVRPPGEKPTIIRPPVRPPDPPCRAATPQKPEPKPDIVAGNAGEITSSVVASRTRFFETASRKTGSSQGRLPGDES
UniProt Q8WZ82: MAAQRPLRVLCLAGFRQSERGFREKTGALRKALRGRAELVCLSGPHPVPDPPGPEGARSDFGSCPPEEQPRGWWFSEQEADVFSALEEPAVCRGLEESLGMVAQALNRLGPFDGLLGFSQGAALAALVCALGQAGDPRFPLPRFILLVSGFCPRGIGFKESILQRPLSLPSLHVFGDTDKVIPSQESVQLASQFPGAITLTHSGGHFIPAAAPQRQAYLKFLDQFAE

Key:
Assay in all cases: log2 fold change, soluble protein after heating vs DMSO (PISA); higher = thermal stabilisation; K562 cells, 10 uM, 30 min; active = over 0.2 and 3.5 SD of the protein, either way, in both replicates (recomputed)
IRAK-1-4 Inhibitor I = compound: C1COCCN1CCN2C3=CC=CC=C3N=C2NC(=O)C4=CC(=CC=C4)[N+](=O)[O-] [IRAK-1-4 Inhibitor I]
Summary of the method: (§1)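 Quantification of soluble protein used TMTpro 16plex LC-MS/MS, with channel sums equalised. Samples were the supernatant after 21,000xg for 90 min of pooled aliquots from K562 cells (2×10^6 cells/mL) treated with 10 μM compound for 30 min, heated for 3 min over 48°C-58°C, and extracted in PBS with 0.5% NP-40 at 4°C. Values, from duplicates, describe thermal stability against control samples on a log2 fold-change scale.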

ibrutinib = compound: C=CC(=O)N1CCC[C@@H](n2nc(-c3ccc(Oc4ccccc4)cc3)c3c(N)ncnc32)C1 [ibrutinib]
Summary of the method: as §1

[1] = compound: CC(=O)c1cnc2ccc(-c3cc(Cl)c(O)c(Cl)c3)nc2c1N[C@H]1CC[C@H](CN(C)C)CC1
Summary of the method: as §1

ralimetinib = compound: CC(C)(C)Cn1c(N)nc2ccc(-c3[nH]c(C(C)(C)C)nc3-c3ccc(F)cc3)nc21 [ralimetinib]
Summary of the method: as §1

[2] = compound: CC(C)(O)CC(=O)NCCn1ccc2ncnc(Nc3ccc(Oc4cccc(C(F)(F)F)c4)c(Cl)c3)c21
Summary of the method: as §1

[3] = compound: CC(C)C1=C2N=C(C=C(N2N=C1)NCC3=CC=CC=C3)NCCCCCCN
Summary of the method: as §1

[4] = compound: CC(C)C[C@@H](C=O)NC(=O)[C@H](CC(C)C)NC(=O)[C@H](CC(C)C)NC(=O)OCc1ccccc1
Summary of the method: as §1

pinometostat = compound: CC(C)N(C[C@H]1O[C@@H](n2cnc3c(N)ncnc32)[C@H](O)[C@@H]1O)[C@H]1C[C@@H](CCc2nc3cc(C(C)(C)C)ccc3[nH]2)C1 [pinometostat]
Summary of the method: as §1

[5] = compound: CC1=C(C2=C(C=C1)C(=O)C3=CC=CC=C3N2CCCN)C
Summary of the method: as §1

[6] = compound: CC1=C(C=C(C=C1)NC(=O)C2=CC(=CC=C2)C(C)(C)C#N)NC3=CC4=C(C=C3)N=CN(C4=O)C
Summary of the method: as §1

[7] = compound: CC1=C(C=C(C=C1)NC(=O)C2=CC(=CC=C2)N(C)C)NC(=O)C3=CC=C(C=C3)O
Summary of the method: as §1

[8] = compound: CC1=CC=C(C=C1)SC2=C3C=C(SC3=CN=C2)C(=O)N
Summary of the method: as §1

[9] = compound: CC1=NC(=CC=C1)C2=C(N=C(N2)C(C)(C)C)C3=CC4=NC=CN=C4C=C3
Summary of the method: as §1

Nexturastat A = compound: CCCCN(Cc1ccc(C(=O)NO)cc1)C(=O)Nc1ccccc1 [Nexturastat A]
Summary of the method: as §1

vemurafenib = compound: CCCS(=O)(=O)Nc1ccc(F)c(C(=O)c2c[nH]c3ncc(-c4ccc(Cl)cc4)cc23)c1F [vemurafenib]
Summary of the method: as §1

[10] = compound: CCCS(=O)(=O)Nc1ccc(F)c(C(=O)c2c[nH]c3ncc(Cl)cc23)c1F
Summary of the method: as §1

[11] = compound: CCCc1cc(C)[nH]c(=O)c1CNC(=O)c1cc(-c2ccnc(N3CCN(C)CC3)c2)cc2c1cnn2C(C)C
Summary of the method: as §1

givinostat = compound: CCN(CC)Cc1ccc2cc(COC(=O)Nc3ccc(C(=O)NO)cc3)ccc2c1 [givinostat]
Summary of the method: as §1

barasertib = compound: CCN(CCCOc1ccc2c(Nc3cc(CC(=O)Nc4cccc(F)c4)[nH]n3)ncnc2c1)CCOP(=O)(O)O [barasertib]
Summary of the method: as §1

[12] = compound: CC1=C(C(CC(=O)N1)C2=CC=C(C=C2)C(F)(F)F)C(=O)NC3=C(C=C4C(=C3)C=NN4)F
Summary of the method: as §1

Measured: log2 fold change

OXR1 (UniProt Q8N573)
inactive: IRAK-1-4 Inhibitor I 0.048 | ibrutinib 0.016 | [1] -0.002 | ralimetinib -0.019 | [2] -0.035 | [3] -0.077 | [4] -0.004 | pinometostat 0.023 | [5] 0.009 | [6] 0.005 | [7] -0.003 | [8] 0.005 | [9] 0.052 | Nexturastat A -0.025 | vemurafenib 0.023 | [10] -0.013 | [11] -0.062 | givinostat 0.012 | barasertib 0.027

OTUD4 (UniProt Q01804)
inactive: IRAK-1-4 Inhibitor I 0.007 | ibrutinib 0.008 | [1] -0.029 | ralimetinib 0.1 | [2] 0.013 | [3] 0.035 | [4] 0.052 | pinometostat 0.128 | [5] 0.244 | [6] -0.038 | [7] -0.017 | [8] -0.035 | [9] -0.069 | Nexturastat A 0.055 | vemurafenib -0.016 | [10] 0.007 | [11] -0.03 | givinostat 0.05 | barasertib -0.083

P4HB (UniProt P07237)
inactive: IRAK-1-4 Inhibitor I 0.042 | ibrutinib -0.022 | [1] 0.017 | ralimetinib -0.07 | [2] 0.03 | [3] 0.037 | [4] -0.042 | pinometostat -0.063 | [12] 0.021 | [5] -0.029 | [6] -0.008 | [7] 0.019 | [8] -0.007 | [9] 0.007 | Nexturastat A -0.095 | vemurafenib -0.027 | [10] -0.044 | [11] 0.003 | givinostat -0.039 | barasertib 0.004

NT5DC3 (UniProt Q86UY8)
inactive: IRAK-1-4 Inhibitor I -0.032 | ibrutinib 0.023 | [1] -0.015 | ralimetinib -0.022 | [2] -0.067 | [3] 0.052 | [4] -0.014 | pinometostat -0.032 | [12] -0.015 | [5] 0.002 | [6] -0.017 | [7] -0.006 | [8] -0.022 | [9] 0.039 | Nexturastat A -0.06 | vemurafenib -0.045 | [10] -0.027 | [11] 0.009 | givinostat 0.007 | barasertib 0.014

NUMA1 (UniProt Q14980)
active: [5] -0.58
inactive: IRAK-1-4 Inhibitor I -0.107 | ibrutinib -0.051 | [1] -0.123 | ralimetinib 0.149 | [2] 0.073 | [3] -0.173 | [4] -0.02 | pinometostat 0.202 | [6] 0.03 | [7] -0.029 | [8] -0.009 | [9] -0.073 | Nexturastat A 0.262 | vemurafenib 0.02 | [10] 0.005 | [11] 0.132 | givinostat 0.092 | barasertib 0.005

OXSM (UniProt Q9NWU1)
inactive: IRAK-1-4 Inhibitor I 0.032 | ibrutinib 0.064 | [1] 0.017 | ralimetinib 0.008 | [2] 0.031 | [3] 0.041 | [4] -0.025 | pinometostat -0.067 | [5] -0.011 | [6] -0.023 | [7] -0.057 | [8] 0.023 | [9] 0.003 | Nexturastat A -0.061 | vemurafenib 0.01 | [10] 0.045 | [11] -0.03 | barasertib -0.034
active: givinostat -0.234

NUDT5 (UniProt C9JYY9)
inactive: IRAK-1-4 Inhibitor I 0.108 | ibrutinib 0.224 | [1] -0.252 | [2] 0.137 | [3] 0.092 | pinometostat 0.044 | [5] 0.312 | [6] 0.02 | [9] -0.299 | Nexturastat A 0.264 | vemurafenib -0.303 | givinostat -0.003 | barasertib -0.032

P4HA1 isoform 2 (UniProt P13674)
inactive: IRAK-1-4 Inhibitor I -0.146 | ibrutinib 0.009 | [1] -0.133 | ralimetinib 0.014 | [2] 0.035 | [4] 0.024 | pinometostat 0.116 | [12] 0.113 | [5] 0.051 | [6] -0.041 | [7] -0.101 | [8] -0.087 | [9] -0.105 | Nexturastat A 0.001 | vemurafenib -0.032 | [10] -0.065 | [11] 0.014 | barasertib 0

OGFOD3 isoform 2 (UniProt Q6PK18)
inactive: IRAK-1-4 Inhibitor I 0.058 | ibrutinib -0.099 | [1] 0.023 | [2] 0 | [3] -0.016 | pinometostat -0.006 | [12] 0.059 | [5] 0.002 | [6] 0.026 | [8] -0.072 | [9] -0.019 | Nexturastat A 0.023 | vemurafenib -0.026 | [10] 0.002 | [11] -0.078 | givinostat 0.081 | barasertib 0.041

NSMCE4A (UniProt Q9NXX6)
inactive: IRAK-1-4 Inhibitor I 0.077 | ibrutinib -0.116 | [1] -0.059 | ralimetinib 0.051 | [2] 0.003 | [3] 0.252 | [4] 0.008 | pinometostat 0 | [5] -0.124 | [6] 0 | [7] 0.022 | [8] -0.035 | [9] -0.053 | Nexturastat A 0.037 | vemurafenib 0.088 | [10] -0.041 | [11] -0.016 | givinostat -0.072 | barasertib 0.196

NUF2 (UniProt Q9BZD4)
inactive: IRAK-1-4 Inhibitor I -0.419 | ibrutinib -0.137 | [1] 0.021 | [2] 0.004 | pinometostat 0.56 | [12] -0.119 | [8] -0.03 | [9] -0.267 | Nexturastat A 0.352 | vemurafenib 0.083 | [10] -0.037 | [11] 0.194 | barasertib 0.05

OPHN1 (UniProt O60890)
inactive: IRAK-1-4 Inhibitor I -0.086 | ibrutinib -0.145 | [1] -0.021 | ralimetinib -0.033 | [2] -0.146 | [3] 0.12 | [4] -0.042 | pinometostat -0.062 | [5] 0.069 | [6] -0.146 | [7] -0.029 | [9] 0.218 | Nexturastat A -0.12 | [11] -0.018 | givinostat 0.049 | barasertib -0.037

OVCA2 (UniProt Q8WZ82)
inactive: IRAK-1-4 Inhibitor I -0.087 | ibrutinib 0.023 | [1] -0.019 | ralimetinib -0.1 | [4] 0.095 | pinometostat 0.021 | [7] -0.132 | [8] 0.013 | [9] 0.086 | [10] -0.048 | [11] -0.305 | barasertib 0.06
